Data published in patent US20210024498A1, “TETRAHYDROPYRROLE COMPOUND, PREPARATION METHOD THEREFOR, PHARMACEUTICAL COMPOSITION CONTAINING SAME, AND USE THEREOF” (MEDICONNS (SHANGHAI) BIOPHARMACEUTICAL CO., LTD, priority 2017, published 2021).
At least one structure is not confirmed: it was looked up by name or label, or the drawing left a doubt.

Experiments:
[1] = tested on: PCP-induced high locomotor activity in mice; assay: Phencyclidine (PCP) induced high locomotor activity (LMA) in mice; type: in vivo; settings: 5, 10, 20 mg/kg
From the text: • 1. The effect of the compound on phencyclidine (PCP) induced high locomotor activity (LMA) in mice was detected.
The test compound MDC was milky white powder and stored in a shade and cool place (freshly formulated with 1% DMSO before use). […] Phencyclidine (PCP), purchased from Sigma Aldrich, was a grayish white powder (freshly formulated with normal saline before use). 1% DMSO was formulated by diluting pure DMSO (purity>99.5, purchased from Sigma-Aldrich) with normal saline.
(§1) Male ICR mice having weight 22±2 g were kept at 8 mice/cage with 12/12 hours light/dark cycle, temperature 23° C.±1° C., humidity 50% to 60%, free to eat and drink water.
The administration volume was 0.1 ml/10 g body weight; PCP was formulated with normal saline at a dose of 5 mg/kg.
The test compound MDC and olanzapine were administered by gavage and PCP was administered by subcutaneous injection. […]
After oral administration, the animals were immediately placed in a locomotor activity box and recorded by Shanghai Jiliang ( ? ) animal video analysis system for 1 hour.
(§2) After the experiment, the activity of the animals within 1 hour was analyzed using the trajectory analysis software of Shanghai Jiliang animal video analysis system to obtain the total distance resulting from the activity.

[2] = tested on: Amphetamine-induced high locomotor activity in mice; assay: Amphetamine-induced high locomotor activity (LMA) in mice; type: in vivo; settings: 5, 10, 20 mg/kg
Description: The test compound MDC was a milky white powder and stored in a shade and cool place (formulated with 1% DMSO before use). […] Amphetamine, purchased from Sigma-Aldrich, was a white powder (formulated with normal saline before use). 1% DMSO was formulated by diluting pure DMSO (purity>99.5, purchased from Sigma) with normal saline.
as §1
The administration volume was 0.1 ml/10 g body weight; Amphetamine was freshly formulated with normal saline at a dose of 1.0 mg/kg and administered subcutaneously.
After one week of acclimation, mice were randomly divided into 6 groups according to their body weight: negative control group, model group, positive control group, and low dose group, medium dose group and high dose group for the test compound. 8-10 animals/group.
Group 1: Negative control group: Normal saline (s.c.)+1% DMSO (10.0 ml/kg, p.o.); […]
After administration, the animals were immediately placed in a locomotor activity box and recorded by Shanghai Jiliang animal video analysis system for 1 hour.
as §2

O=S(=O)(CC(F)(F)F)Nc1cccc(C2CCN(Cc3c[nH]c4ccccc34)C2)c1 (stereo not shown) [MDC-161502-006, 1-(indole-3-methyl)-3-(3-trifluoroethanesulfonamidophenyl)pyrrolidine]
Effect on PCP-induced high locomotor activity compared with olanzapine (in words) ([1]; p.o. vs olanzapine 5 mg/kg p.o.): equivalent to the effect of the positive drug olanzapine
Inhibition of PCP-induced high locomotor activity (in words) ([1]; p.o., P<0.05-0.01): inhibited PCP-induced high locomotor activity in mice
Effect on Amphetamine-induced high locomotor activity compared with olanzapine (in words) ([2]; p.o. vs olanzapine 5.0 mg/kg p.o.): equivalent to olanzapine
Inhibition of Amphetamine-induced high locomotor activity (in words) ([2]; p.o., P<0.05-0.01): significantly inhibited
